Some of the results follow.
compound: COc1cc2nc(-c3cc(F)ccc3O)nc(N[C@@H]3CNC[C@H]3C(C)(C)O)c2cc1OC; assay: log2 fold change, soluble protein after heating vs DMSO (PISA); higher = thermal stabilisation; K562 cells, 10 uM, 30 min; active = over 0.2 and 3.5 SD of the protein, either way, in both replicates (recomputed)
How it was run: (§1)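 Thermal stability values are relative to control samples and come from duplicates. They are expressed as log2 fold changes. For measurement, K562 cells (2×10^6 cells/mL) received 10 μM compound for 30 min, and aliquots were heated for 3 min over 48°C-58°C, pooled, and extracted at 4°C in PBS with 0.5% NP-40. Soluble protein, the supernatant after 21,000xg for 90 min, was quantified by TMTpro 16plex LC-MS/MS with equalised channel sums.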

The chains behind the UniProt entries cited, without tags or fusion partners. Where a name states a change or a piece, a line headed by the entry shows the natural chain unless it says otherwise.
UniProt Q8N357: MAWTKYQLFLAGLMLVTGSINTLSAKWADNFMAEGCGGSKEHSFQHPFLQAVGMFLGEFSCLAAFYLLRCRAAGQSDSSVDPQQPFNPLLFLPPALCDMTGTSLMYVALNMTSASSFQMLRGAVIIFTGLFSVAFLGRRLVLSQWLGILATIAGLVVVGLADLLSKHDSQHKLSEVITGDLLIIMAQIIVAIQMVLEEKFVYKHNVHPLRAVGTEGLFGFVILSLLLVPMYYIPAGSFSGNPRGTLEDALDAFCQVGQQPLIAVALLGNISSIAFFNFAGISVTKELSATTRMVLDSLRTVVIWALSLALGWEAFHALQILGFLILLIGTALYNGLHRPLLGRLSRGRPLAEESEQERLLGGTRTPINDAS
UniProt A1A5C7: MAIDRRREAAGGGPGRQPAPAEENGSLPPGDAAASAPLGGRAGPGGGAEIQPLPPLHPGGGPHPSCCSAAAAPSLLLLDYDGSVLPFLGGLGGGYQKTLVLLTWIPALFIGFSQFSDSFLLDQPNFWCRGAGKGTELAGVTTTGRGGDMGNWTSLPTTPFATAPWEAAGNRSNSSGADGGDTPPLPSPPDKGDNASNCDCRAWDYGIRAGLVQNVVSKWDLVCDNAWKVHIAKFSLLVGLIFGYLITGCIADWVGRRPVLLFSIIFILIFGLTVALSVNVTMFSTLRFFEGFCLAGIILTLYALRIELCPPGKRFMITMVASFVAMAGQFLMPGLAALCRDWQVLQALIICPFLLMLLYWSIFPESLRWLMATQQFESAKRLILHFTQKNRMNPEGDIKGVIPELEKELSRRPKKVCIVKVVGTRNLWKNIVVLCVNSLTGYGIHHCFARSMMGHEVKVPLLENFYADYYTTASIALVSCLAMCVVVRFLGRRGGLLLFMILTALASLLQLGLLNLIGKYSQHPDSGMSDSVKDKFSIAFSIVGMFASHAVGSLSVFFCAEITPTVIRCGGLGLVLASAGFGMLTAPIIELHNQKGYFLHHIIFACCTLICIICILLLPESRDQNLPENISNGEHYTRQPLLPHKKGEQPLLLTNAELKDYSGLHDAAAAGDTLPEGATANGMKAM
UniProt Q9C0K1: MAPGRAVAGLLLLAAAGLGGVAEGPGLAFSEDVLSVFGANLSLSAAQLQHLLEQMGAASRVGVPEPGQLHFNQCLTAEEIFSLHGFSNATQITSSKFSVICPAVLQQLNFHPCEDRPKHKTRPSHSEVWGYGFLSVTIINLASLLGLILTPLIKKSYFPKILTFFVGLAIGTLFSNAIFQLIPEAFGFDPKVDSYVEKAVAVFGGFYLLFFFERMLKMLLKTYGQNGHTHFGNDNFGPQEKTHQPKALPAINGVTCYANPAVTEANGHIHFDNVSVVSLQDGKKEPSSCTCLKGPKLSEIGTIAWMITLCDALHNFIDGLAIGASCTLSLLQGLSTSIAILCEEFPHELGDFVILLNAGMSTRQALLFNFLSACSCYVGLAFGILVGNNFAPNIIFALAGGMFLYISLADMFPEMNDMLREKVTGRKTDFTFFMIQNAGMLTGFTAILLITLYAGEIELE
UniProt F5GZS6: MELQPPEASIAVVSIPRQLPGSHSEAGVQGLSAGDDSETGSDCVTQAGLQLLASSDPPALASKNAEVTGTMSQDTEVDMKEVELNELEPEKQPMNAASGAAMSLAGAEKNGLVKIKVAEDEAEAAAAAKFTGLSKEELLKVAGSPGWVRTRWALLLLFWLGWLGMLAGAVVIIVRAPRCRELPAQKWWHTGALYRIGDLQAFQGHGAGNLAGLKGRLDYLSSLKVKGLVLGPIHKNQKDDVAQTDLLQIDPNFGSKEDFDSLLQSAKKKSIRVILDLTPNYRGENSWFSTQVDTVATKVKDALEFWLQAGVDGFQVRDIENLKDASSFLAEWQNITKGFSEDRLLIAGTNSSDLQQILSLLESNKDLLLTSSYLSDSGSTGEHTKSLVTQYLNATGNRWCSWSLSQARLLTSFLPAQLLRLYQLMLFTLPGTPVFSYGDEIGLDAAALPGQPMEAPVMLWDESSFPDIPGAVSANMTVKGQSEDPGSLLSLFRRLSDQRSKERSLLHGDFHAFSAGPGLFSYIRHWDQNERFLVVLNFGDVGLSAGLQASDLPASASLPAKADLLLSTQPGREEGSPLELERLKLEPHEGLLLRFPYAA
UniProt O15431: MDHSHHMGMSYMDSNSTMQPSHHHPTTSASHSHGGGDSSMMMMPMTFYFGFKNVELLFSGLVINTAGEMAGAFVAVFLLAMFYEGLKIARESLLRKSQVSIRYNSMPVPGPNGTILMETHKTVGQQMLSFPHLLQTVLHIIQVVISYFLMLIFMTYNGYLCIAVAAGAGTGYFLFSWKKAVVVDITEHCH
UniProt Q9BRY0: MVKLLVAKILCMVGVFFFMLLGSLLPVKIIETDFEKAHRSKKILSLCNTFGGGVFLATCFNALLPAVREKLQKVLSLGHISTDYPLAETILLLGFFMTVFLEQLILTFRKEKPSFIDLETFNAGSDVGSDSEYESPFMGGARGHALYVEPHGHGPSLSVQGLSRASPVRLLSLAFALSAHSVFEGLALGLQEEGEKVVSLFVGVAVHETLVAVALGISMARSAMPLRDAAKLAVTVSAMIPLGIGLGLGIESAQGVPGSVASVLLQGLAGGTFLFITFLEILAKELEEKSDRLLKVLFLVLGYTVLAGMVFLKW
UniProt Q0GE19: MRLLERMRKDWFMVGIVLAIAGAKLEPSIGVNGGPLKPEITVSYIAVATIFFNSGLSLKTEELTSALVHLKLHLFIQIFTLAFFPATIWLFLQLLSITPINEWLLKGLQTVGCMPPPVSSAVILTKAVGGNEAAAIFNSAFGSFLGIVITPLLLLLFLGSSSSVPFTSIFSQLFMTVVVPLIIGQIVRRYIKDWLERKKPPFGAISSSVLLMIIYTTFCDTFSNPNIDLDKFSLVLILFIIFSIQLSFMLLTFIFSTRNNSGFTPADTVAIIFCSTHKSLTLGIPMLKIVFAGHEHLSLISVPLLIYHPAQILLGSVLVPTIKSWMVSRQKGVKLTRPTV
UniProt Q8N8R3: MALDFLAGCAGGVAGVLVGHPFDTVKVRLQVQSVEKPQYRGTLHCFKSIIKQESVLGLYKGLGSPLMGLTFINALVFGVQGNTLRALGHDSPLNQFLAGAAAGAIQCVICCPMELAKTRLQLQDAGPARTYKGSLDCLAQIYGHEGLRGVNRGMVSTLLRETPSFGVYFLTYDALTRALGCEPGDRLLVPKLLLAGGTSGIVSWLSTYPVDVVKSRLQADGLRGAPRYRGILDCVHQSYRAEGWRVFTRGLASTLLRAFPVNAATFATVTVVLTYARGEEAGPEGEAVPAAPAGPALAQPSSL
UniProt Q96K37: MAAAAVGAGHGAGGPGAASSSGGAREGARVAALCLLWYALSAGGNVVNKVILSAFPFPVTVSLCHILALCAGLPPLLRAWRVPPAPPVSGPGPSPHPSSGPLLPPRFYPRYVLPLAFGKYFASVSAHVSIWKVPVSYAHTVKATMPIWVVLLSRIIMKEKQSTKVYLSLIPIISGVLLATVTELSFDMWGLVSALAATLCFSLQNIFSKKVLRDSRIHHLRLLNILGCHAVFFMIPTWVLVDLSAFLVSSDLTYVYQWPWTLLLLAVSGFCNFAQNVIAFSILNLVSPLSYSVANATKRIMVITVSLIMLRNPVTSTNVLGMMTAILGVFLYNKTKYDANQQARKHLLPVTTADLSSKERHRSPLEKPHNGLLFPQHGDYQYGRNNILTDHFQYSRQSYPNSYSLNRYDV
UniProt P14672: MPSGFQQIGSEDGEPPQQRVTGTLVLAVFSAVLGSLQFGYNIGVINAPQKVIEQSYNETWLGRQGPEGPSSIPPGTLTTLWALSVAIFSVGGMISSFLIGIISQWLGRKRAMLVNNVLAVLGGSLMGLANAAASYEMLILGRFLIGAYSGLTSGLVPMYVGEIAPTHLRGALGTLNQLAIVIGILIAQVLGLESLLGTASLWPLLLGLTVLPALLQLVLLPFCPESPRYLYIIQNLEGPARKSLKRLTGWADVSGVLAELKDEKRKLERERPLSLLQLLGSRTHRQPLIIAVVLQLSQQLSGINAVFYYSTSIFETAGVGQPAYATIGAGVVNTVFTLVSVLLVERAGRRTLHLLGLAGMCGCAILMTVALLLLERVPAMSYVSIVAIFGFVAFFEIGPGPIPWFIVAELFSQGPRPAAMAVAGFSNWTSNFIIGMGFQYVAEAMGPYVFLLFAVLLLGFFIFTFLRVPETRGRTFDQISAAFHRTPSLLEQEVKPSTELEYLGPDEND
UniProt P43003, whole entry, looked up: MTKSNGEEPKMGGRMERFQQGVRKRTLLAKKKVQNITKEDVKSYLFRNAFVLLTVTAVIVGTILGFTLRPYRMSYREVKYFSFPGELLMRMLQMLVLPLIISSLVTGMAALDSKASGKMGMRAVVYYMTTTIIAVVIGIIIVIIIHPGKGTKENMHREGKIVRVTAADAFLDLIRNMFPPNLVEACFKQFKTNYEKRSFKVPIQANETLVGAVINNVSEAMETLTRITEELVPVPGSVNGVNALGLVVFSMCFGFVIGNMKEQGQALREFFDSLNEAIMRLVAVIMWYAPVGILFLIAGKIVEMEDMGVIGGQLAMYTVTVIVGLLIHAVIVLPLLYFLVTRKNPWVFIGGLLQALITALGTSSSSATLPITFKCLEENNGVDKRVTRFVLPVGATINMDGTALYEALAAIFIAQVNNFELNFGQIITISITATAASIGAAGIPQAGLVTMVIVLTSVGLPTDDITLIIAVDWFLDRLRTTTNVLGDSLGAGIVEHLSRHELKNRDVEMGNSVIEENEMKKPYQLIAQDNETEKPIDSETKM
UniProt P48751: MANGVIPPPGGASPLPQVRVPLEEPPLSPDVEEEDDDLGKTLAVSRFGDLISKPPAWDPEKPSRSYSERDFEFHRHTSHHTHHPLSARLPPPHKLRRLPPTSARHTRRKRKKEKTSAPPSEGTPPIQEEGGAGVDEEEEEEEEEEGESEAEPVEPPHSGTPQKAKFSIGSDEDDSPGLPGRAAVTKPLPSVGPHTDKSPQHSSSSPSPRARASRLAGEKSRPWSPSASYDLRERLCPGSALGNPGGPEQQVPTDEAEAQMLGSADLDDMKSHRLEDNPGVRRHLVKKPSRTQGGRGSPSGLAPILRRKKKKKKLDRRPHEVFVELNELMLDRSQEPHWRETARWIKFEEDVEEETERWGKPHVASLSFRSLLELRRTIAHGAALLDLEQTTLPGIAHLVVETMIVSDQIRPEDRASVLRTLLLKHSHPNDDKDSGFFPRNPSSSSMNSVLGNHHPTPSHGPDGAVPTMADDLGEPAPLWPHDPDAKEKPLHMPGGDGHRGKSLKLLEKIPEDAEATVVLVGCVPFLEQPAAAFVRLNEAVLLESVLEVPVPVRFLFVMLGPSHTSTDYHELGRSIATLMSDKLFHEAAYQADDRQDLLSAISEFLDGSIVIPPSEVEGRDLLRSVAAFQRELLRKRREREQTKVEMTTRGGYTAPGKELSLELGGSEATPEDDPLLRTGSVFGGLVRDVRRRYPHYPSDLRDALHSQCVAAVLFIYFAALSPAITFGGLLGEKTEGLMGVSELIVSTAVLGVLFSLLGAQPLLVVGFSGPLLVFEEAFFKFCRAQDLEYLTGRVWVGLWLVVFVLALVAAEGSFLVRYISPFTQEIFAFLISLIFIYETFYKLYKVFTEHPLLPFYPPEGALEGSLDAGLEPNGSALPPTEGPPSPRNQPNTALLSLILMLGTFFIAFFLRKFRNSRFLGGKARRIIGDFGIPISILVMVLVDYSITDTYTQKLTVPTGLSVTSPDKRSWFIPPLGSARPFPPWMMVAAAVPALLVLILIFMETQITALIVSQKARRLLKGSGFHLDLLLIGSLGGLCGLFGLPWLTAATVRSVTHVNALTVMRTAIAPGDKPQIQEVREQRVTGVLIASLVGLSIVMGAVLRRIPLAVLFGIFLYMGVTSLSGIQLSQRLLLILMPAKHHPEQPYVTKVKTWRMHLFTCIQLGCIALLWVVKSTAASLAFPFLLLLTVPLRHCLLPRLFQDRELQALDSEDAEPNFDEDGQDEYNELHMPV
UniProt Q9NQQ7: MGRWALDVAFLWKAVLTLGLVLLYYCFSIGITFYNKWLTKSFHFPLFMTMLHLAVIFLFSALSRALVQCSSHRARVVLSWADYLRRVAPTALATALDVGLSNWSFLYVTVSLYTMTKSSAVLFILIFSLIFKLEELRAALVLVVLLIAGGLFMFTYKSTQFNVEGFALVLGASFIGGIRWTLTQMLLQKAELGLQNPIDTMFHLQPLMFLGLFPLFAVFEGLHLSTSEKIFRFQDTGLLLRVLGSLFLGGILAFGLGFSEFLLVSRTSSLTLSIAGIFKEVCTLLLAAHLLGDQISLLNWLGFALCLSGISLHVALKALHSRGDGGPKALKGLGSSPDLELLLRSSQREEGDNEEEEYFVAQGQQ
UniProt Q8N755: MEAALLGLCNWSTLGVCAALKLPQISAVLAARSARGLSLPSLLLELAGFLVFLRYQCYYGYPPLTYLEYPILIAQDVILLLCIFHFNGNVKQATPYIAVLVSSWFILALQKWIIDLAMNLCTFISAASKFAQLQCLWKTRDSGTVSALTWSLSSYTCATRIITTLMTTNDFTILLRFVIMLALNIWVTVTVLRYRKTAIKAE

log2 fold change, inactive:
SLC3A2 (UniProt F5H867) 0.133
SLC35F6 (UniProt Q8N357) 0.033
SLC50A1 (UniProt Q9BRV3) 0.379
SLC35D1 (UniProt Q9NTN3) 0.066
SLC35E3 (UniProt Q7Z769) 0.217
SLC22A23 (UniProt A1A5C7) 0.25
SLC22A4 (UniProt Q9H015) 0.035
SLC25A35 (UniProt Q3KQZ1) 0.048
SLC39A8 (UniProt Q9C0K1) 0.018
SLC6A19 (UniProt Q695T7) -0.216
SLC3A2 (UniProt F5GZS6) 0.029
SLC31A1 (UniProt O15431) -0.008
SLC39A3 (UniProt Q9BRY0) 0.027
SLC22A5 isoform 3 (UniProt O76082) 0.017
SLC35C1 (UniProt Q96A29) 0.068
SLC10A7 isoform 1 (UniProt Q0GE19) 0.034
SLC25A29 (UniProt Q8N8R3) -0.108
SLC25A28 (UniProt Q96A46) 0.069
SLC43A3 (UniProt Q8NBI5) 0.045
SLC2A13 (UniProt Q96QE2) 0.081
SLC35E1 (UniProt Q96K37) -0.034
SLC2A4 (UniProt P14672) -0.023
SLC1A3 (UniProt P43003) 0.118

compound: COc1cc2ncnc(Nc3ccc(F)c(Cl)c3)c2cc1OCCCN1CCOCC1 [gefitinib]; assay: as above
How it was run: as §1

log2 fold change, inactive:
SLC3A2 (UniProt F5H867) 0.269
SLC27A6 (UniProt Q9Y2P4) 0.001
SLC35F6 (UniProt Q8N357) 0
SLC35E3 (UniProt Q7Z769) -0.109
SLC4A3 isoform 3 (UniProt P48751) 0.006
SLC66A2 (UniProt Q8N2U9) 0.139
SLC52A2 (UniProt Q9HAB3) 0.092
SLC66A1 (UniProt Q6ZP29) 0.124
SLC39A8 (UniProt Q9C0K1) -0.057
SLC3A2 (UniProt F5GZS6) -0.025
SLC39A3 (UniProt Q9BRY0) 0.001
SLC35C2 isoform 3 (UniProt Q9NQQ7) -0.085
SLC26A2 (UniProt P50443) -0.134
SLC66A3 (UniProt Q8N755) -0.077
SLC22A5 isoform 3 (UniProt O76082) 0.073
SLC35C1 (UniProt Q96A29) -0.042
SLC10A7 isoform 1 (UniProt Q0GE19) -0.325
SLC25A28 (UniProt Q96A46) -0.073
SLC10A3 (UniProt P09131) 0.004
SLC35E1 (UniProt Q96K37) -0.008
SLC2A4 (UniProt P14672) 0.001
SLC1A3 (UniProt P43003) -0.023

compound: COc1cccc2cc(-c3nc([C@H]4CC[C@H](C(=O)O)CC4)n4ncnc(N)c34)[nH]c12; assay: as above
How it was run: as §1

log2 fold change, inactive:
SLC3A2 (UniProt F5H867) 0.01
SLC27A6 (UniProt Q9Y2P4) 0.008
SLC35F6 (UniProt Q8N357) 0.037
SLC50A1 (UniProt Q9BRV3) 0.039
SLC22A23 (UniProt A1A5C7) -0.042
SLC4A3 isoform 3 (UniProt P48751) 0
SLC66A2 (UniProt Q8N2U9) -0.281
SLC52A2 (UniProt Q9HAB3) 0.073
SLC66A1 (UniProt Q6ZP29) 0.096
SLC39A8 (UniProt Q9C0K1) 0.067
SLC6A19 (UniProt Q695T7) 0.156
SLC3A2 (UniProt F5GZS6) 0.043
SLC31A1 (UniProt O15431) 0.013
SLC39A3 (UniProt Q9BRY0) 0.06
SLC26A2 (UniProt P50443) -0.037
SLC66A3 (UniProt Q8N755) 0.066
SLC36A4 (UniProt Q6YBV0) 0.215
SLC10A7 isoform 1 (UniProt Q0GE19) 0.149
SLC36A1 (UniProt Q7Z2H8) -0.087
SLC10A3 (UniProt P09131) -0.204
SLC35E1 (UniProt Q96K37) 0.119
SLC2A4 (UniProt P14672) 0.033
SLC1A3 (UniProt P43003) 0.012
